Data published in PubChem BioAssay AID2685 (National Center for Advancing Translational Sciences (NCATS), 2010).
The list shows a part of the results. Further columns of the screen follow, without active or inactive calls. The list favours compounds with an active or inconclusive main result. Potencies come from curve fits of mixed quality, noted in brackets.

Experiment: qHTS Assay for Lipid Storage Modulators in Drosophila S3 Cells;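 for cell number change: cells counted by Cell Tracker Red CMTPX staining in the red channel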
Conditions: BODIPY lipid droplet fluorescence, 18-24 h; for cell number change: measured here: cell count max response, cells fed with added oleic acid
Method in brief: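 Laser-scanning cytometry quantifies lipid droplet accumulation (500–530 nm total intensity; droplet/cell object ratio) in oleic acid-fed (400 uM added) Drosophila S3 cells treated with a concentration series. 20 uM Triacsin C defined 100% inhibition.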

[1] = measured here: cell number channel AC50, cells fed with added oleic acid
[2] = measured here: lipid fluorescence (Fed channel) AC50, cells fed with added oleic acid

Row | SMILES | cell number change | AC50 [1] | AC50 [2]
1 | CC(=O)c1ccc(NC(=O)c2ccc3c(=O)n4c(nc3c2)CCCCC4)cc1 | -29.5% | 3.26 µM [falling, single point] | 3.26 µM [falling, partial curve, poor fit]
2 | Cc1ccc2c(c1)C(O)(CC(=O)c1ccc(C)s1)C(=O)N2 (configuration not stated) | -17.8% |  | 
3 | Cc1onc(C(=O)Nc2ccc(OC(F)(F)F)cc2)c1[N+](=O)[O-] | 2.28% |  | 7.31 µM [rising, partial curve, poor fit]
4 | COc1ccc2c(C)c(CC(=O)N3CCN(C(=O)C4COc5ccccc5O4)CC3)c(=O)oc2c1C (configuration not stated) | 20.2% |  | 
5 | CC(C)C(=O)N(Nc1nc2ccccc2s1)C(=O)C(C)C | -9.61% |  | 11.6 µM [falling, partial curve]
6 | CC(C)Sc1nnc(SCC(=O)NCCCN2CCCC2=O)s1 | 9.44% |  | 6.51 µM [rising, partial curve, poor fit]
7 | O=C(O)C1CC(=O)N(c2ccc(F)c(F)c2)C1 (configuration not stated) | -36.6% | 1.84 µM [falling, full curve] | 1.46 µM [falling, full curve]
8 | Cc1cccc(N2CCN(C(=O)Cn3nc(C)n4cccc4c3=O)CC2C)c1 (configuration not stated) | 7.49% |  | 16.4 µM [rising, partial curve]
9 | COc1ccc(N2CC(O)=C(c3nc4ccccc4s3)C2=N)c(OC)c1 | 1.89% |  | 0.231 µM [rising, full curve, poor fit]
10 | COc1cc(CC(=O)OCC(=O)NCC(C)C)cc(OC)c1OC |  |  | 0.00517 µM [rising, full curve, poor fit]
11 | Cc1c(/C=N\NC(=O)C2COc3ccccc3O2)c2ccccc2n1C (configuration not stated) | -10.3% |  | 0.651 µM [falling, single point]
12 | CCC(=O)Nc1ccc(SC#N)cc1C | 57.6% | 7.31 µM [rising, partial curve] | 
13 | CC(C)CC(NC(N)=O)C(=O)Nc1cccc([N+](=O)[O-])c1 (configuration not stated) | 1.46% | 0.92 µM [rising, full curve, poor fit] | 
14 | Cc1ccc(C)c(N2CCN(C(=O)C34CC5CC(C3)CC(n3nnc(C)n3)(C5)C4)CC2)c1 | -66.8% | 8.2 µM [falling, partial curve] | 7.31 µM [falling, partial curve]
15 | Cc1cccc(-c2cnn(-c3cccc([N+](=O)[O-])c3)c2N)c1 | 30.3% |  | 
16 | COc1ccc(/C=N/NC(=O)c2ccc(N3CCCC3=O)cc2)cc1 |  | 0.00517 µM [rising, full curve, poor fit] | 
17 | COC(=O)c1sc2nc(CN3CCOCC3)nc(N3CCOCC3)c2c1C | -5.78% |  | 7.31 µM [rising, partial curve, poor fit]
18 | COc1ccc(CCc2nc(-c3ccc(-n4cccc4)cc3)no2)cc1 |  |  | 1.64 µM [rising, partial curve, poor fit]
19 | N#Cc1cc2ccccc2nc1SCc1ccccn1 | 89.1% | 29.1 µM [rising, single point] | 20.6 µM [rising, partial curve]
20 | C=CCNC(=S)Nc1ccc2nsnc2c1 | -37.7% | 3.26 µM [falling, partial curve] | 1.84 µM [falling, partial curve, poor fit]
21 | Cc1noc(NS(=O)(=O)c2ccc(NC(=O)CSc3nnc4c(n3)[nH]c3ccccc34)cc2)c1C |  | 0.146 µM [rising, full curve, poor fit] | 20.6 µM [rising, single point]
22 | COc1ccc(O)c(C(=O)CC(=O)c2ccccc2C)c1 | -46.7% | 11.6 µM [falling, partial curve] | 23.1 µM [falling, partial curve, poor fit]
23 | CCOc1ccc2nc(NC(NC(=O)CC)(C(=O)OC)C(F)(F)F)sc2c1 (configuration not stated) | -20.4% |  | 2.06 µM [falling, partial curve, poor fit]
24 | Cc1ccc2c(CN3CCN(S(=O)(=O)c4ccccc4C(F)(F)F)CC3)cc(=O)oc2c1C | -43.7% | 29.1 µM [falling, single point] | 23.1 µM [falling, single point]
25 | O=S(=O)(NCCCCCCNS(=O)(=O)c1c(F)cccc1F)c1ccc2c(c1)OCCO2 | -1.68% |  | 0.0116 µM [rising, full curve]
26 | COCCNC(=O)C1CCC(=O)N(c2ccc(OC)cc2)C1c1ccc(OC)c(OC)c1 (configuration not stated) | 17.6% |  | 0.164 µM [falling, full curve, poor fit]
27 | Nc1nc(Cl)cc(N2CCOCC2)n1 | 11.2% |  | 

Entries of single compounds, looked up by structure.
COC(=O)c1sc2nc(CN3CCOCC3)nc(N3CCOCC3)c2c1C reads cell number change: -5.78%; AC50 [2]: 7.31 µM [rising, partial curve, poor fit]
Cc1cccc(N2CCN(C(=O)Cn3nc(C)n4cccc4c3=O)CC2C)c1 (configuration not stated) reads cell number change: 7.49%; AC50 [2]: 16.4 µM [rising, partial curve]

Carrying on.

Row | SMILES | cell number change | AC50 [1] | AC50 [2]
28 | CCOC(=O)c1ccc(N2C(=O)C=CC2=O)cc1 | -89.6% | 25.9 µM [falling, single point] | 29.1 µM [falling, single point]
29 | CCc1nnc(NC(=O)NC(C)(C)C)s1 | 66.1% | 29.1 µM [rising, partial curve, poor fit] | 14.6 µM [rising, partial curve, poor fit]
30 | O=C(NC1=NCCS1)c1ccc(Cl)c(S(=O)(=O)N2CCOCC2)c1 | 24.9% | 0.82 µM [rising, full curve, poor fit] | 
31 | O=C(Nc1ccc(Cl)c(Cl)c1)N1CCSC1c1ccco1 (configuration not stated) | -37.7% | 20.6 µM [falling, partial curve] | 0.0517 µM [rising, full curve, poor fit]
32 | CC(=O)c1cccc(NC(=S)NC(=O)CC(C)(C)C)c1 | -48.7% | 1.03 µM [falling, full curve, poor fit] | 
33 | O=C(Cn1cc([N+](=O)[O-])cn1)NCc1cc2ccccc2[nH]1 | 8.82% |  | 0.651 µM [rising, partial curve, poor fit]
34 | COc1ccc(N2CC(C(=O)Nc3nnc(SCC(=O)c4ccccc4)s3)CC2=O)cc1 (configuration not stated) | 23.3% |  | 10.3 µM [rising, partial curve]
35 | O=C(O)CSc1nnc(-c2ccccc2O)n1Cc1ccccc1 |  |  | 18.4 µM [falling, partial curve]
36 | N#Cc1ccc(NC(=O)Cn2cnc(S(=O)(=O)N3CCCCC3)c2)cc1 | -14.9% |  | 0.651 µM [falling, full curve]
37 | O=C(O)/C=C/C(=O)NCCC1=CCCCC1 | 16.7% | 4.11 µM [falling, single point] | 4.11 µM [falling, single point]
38 | Cc1csc(NC(=O)CCCC(=O)O)c1-c1nc2ccccc2s1 | -4.26% |  | 
39 | Cc1nn(Cc2ccc(Cl)c(Cl)c2)c(C)c1NC(=O)c1noc2c1CCCCC2 | -5.48% | 0.82 µM [rising, full curve] | 
40 | S=C1NC2=C(CCC/C2=C\c2ccccc2)C(c2ccccc2)N1 (configuration not stated) | -31.9% | 0.461 µM [rising, single point] | 29.1 µM [rising, partial curve, poor fit]
41 | O=C(CN1CCC2(CC1)OCCO2)c1ccc2cc[nH]c2c1 | 74.6% | 29.1 µM [rising, single point] | 29.1 µM [rising, single point]
42 | N#C/C(=C\C1CC=CCC1)c1nc2ccccc2[nH]1 (configuration not stated) | -23.3% |  | 4.61 µM [falling, full curve, poor fit]
43 | CCC(C)NCCOc1ccc(C)cc1[N+](=O)[O-] (configuration not stated) | -0.0278% |  | 0.82 µM [rising, full curve, poor fit]
44 | COc1ccc(CNC(=O)CN(Cc2ccc(C)cc2)S(=O)(=O)c2ccc(Cl)cc2)cc1 | -9.89% | 2.06 µM [rising, single point] | 6.51 µM [rising, single point]
45 | CCOC(=O)c1sc(=S)n(-c2ccc(OC)cc2)c1C | -9.29% | 0.00461 µM [rising, full curve, poor fit] | 0.116 µM [rising, full curve, poor fit]
46 | COc1ccc(OC)c(NC(=O)CS(=O)(=O)Cc2nc(-c3ccccc3C)oc2C)c1 | 23.2% | 2.06 µM [rising, single point] | 9.2 µM [rising, single point]
47 | CCC(C)NS(=O)(=O)c1ccc(OCC(=O)NCc2ccc3c(c2)OCO3)cc1 (configuration not stated) | 77.9% | 7.31 µM [rising, partial curve] | 20.6 µM [rising, partial curve]
48 | Cc1nc2c(C)cccn2c(=O)c1NC(=O)COc1ccccc1 | 1.71% |  | 5.17 µM [falling, full curve]
49 | CCN(Cc1ccccc1)S(=O)(=O)c1ccc(C(=O)N(CCCN(C)C)c2nc3c(C)c(C)ccc3s2)cc1 | -82.3% | 13 µM [falling, partial curve] | 1.84 µM [falling, single point]
50 | CCOc1ccccc1OCCOCCOc1ccccc1[N+](=O)[O-] | -21.7% |  | 8.2 µM [rising, partial curve, poor fit]
51 | Cc1cccc(OCc2nnc(SCc3nc4ccccc4c(=O)[nH]3)o2)c1 | 2.03% |  | 6.51 µM [rising, single point]
52 | Cc1ccc(OCCn2cc(/C=C3\C(=O)NN(c4ccccc4)C3=O)c3ccccc32)cc1 | -44.7% | 0.0116 µM [falling, full curve, poor fit] | 20.6 µM [falling, partial curve]
53 | CCOC(=O)c1sc(=S)n(CC)c1N | -8.64% |  | 
54 | Cc1oc2cc3oc(=O)c(CCC(=O)N4C[C@H]5C[C@@H](C4)c4cccc(=O)n4C5)c(C)c3cc2c1C | -4.85% |  | 0.58 µM [rising, single point]
